# Measured values from US4444780A, “Method for treating atopic dermatitis” (priority 1982, dated 1984).
# Experiments:
# [1] = system: K^+ -Stimulated Ca^++ -mediated Contractions of Rabbit Aortic Strips; experiment: Potassium-Induced Calcium-Mediated Contraction of Aortic Strips; format: cell-based, New Zealand strain rabbits; settings: Oryctolagus cuniculus, read-out: IC50, K+-stimulated Ca++-mediated contractions
# Excerpt: New Zealand strain rabbits (1-1.5 kg) were sacrificed by cervical dislocation and the thoracic cavity was opened to expose a section of the aorta. A section of the aorta from the diaphragm to the aortic arch was isolated, dissected out and immediately placed in chilled Krebs bicarbonate buffer solution. A 2 inch section of the aorta was supported on a glass rod in a petri dish with chilled Krebs bicarbonate solution and cleaned of excess tissue. The aorta was then cut into helical strips (3×30 mm) and suspended from a FT03 isometric force displacement transducer coupled to a Beckman recorder. The tissue bath was filled with Krebs bicarbonate buffer maintained at 37° C. and bubbled with 95% 02 and 5% CO2. The helical strips were allowed to equilibrate for 1.5 to 2 hours with a 4 gram resting load. The tissues were dosed in a cumulative manner with 10 mM, 15 mM, 20 mM, 30 mM, 40 mM, 80 mM and 120 mM KCl. The tissues were washed several times after the KCl treatment and were allowed to equilibrate for 1-1.5 hours until a baseline equivalent to 4 grams tension was achieved. A second dose-response to KCl was repeated and again washed and allowed to equilibrate. […] Changes in grams tension were recorded.
# [2] = system: passive cutaneous anaphylaxis reaction; experiment: Passive Cutaneous Anaphylaxis Test (PCA), topical antiallergic activity; format: in vivo, Male Sprague Dawley rats
# Excerpt: Male Sprague Dawley rats (175-200 grams) were sensitized intradermally with 0.1 cc of high dilution of antiovalbumin antiserum (IgE-containing) that was predetermined to cause a well circumscribed and reproducible skin wheal response. Two intradermal sensitization sites were applied to the backs of each rat. […] One hour later the rats were challenged intravenously with a solution containing 0.5% ovalbumin and 0.5% Evans blue dye in a saline vehicle. Twenty minutes later the rats were killed by carbon dioxide asphyxiation, the dorsal skin reflected and the blue wheal measured as the mean of the two largest perpendiculars. This mean was used to calculate the area of the wheal according to [A=π(d/2)^2 ]. The wheal area under the drug-treated site was used as an index of local topical activity and the distant site served as an index of systemic activity.
SMILES,IC50 [1] [nM],"inhibition in vivo at 0.02 % ([2]; Rattus norvegicus, Topical Dose 0.02%, read-out: Percent Inhibition) [%]","inhibition in vivo at 0.2 % ([2]; Rattus norvegicus, Topical Dose 0.20%, read-out: Percent Inhibition) [%]","inhibition in vivo at 2 % ([2]; Rattus norvegicus, Topical Dose 2.00%, read-out: Percent Inhibition) [%]",Significance (P < .05) of inhibition ([2]; Topical Dose 0.02%),Significance (P < .05) of inhibition ([2]; Topical Dose 0.20%),Significance (P < .05) of inhibition ([2]; Topical Dose 2.00%),activity in the PCA test (in words) ([2]; topical)
"CN1CCC(=C2c3ccccc3C=Cc3ccccc32)CC1 [Cyproheptadine, cyproheptadine]",3000,–,–,–,–,–,–,–
"CN(C)CCN(Cc1cccs1)c1ccccn1 [Methapyrilene, methapyrilene]",–,8.9,8.8,37.4,No,No,No,inactive
